Data as given in patent US20080171849 (published 2008).

Experiment: general procedure: Fmoc solid-phase peptide synthesis; 2-chlorotrityl polystyrene
Conditions: whole synthesis

Ac-Nle-cyclo(Asp-His-D-Phe-Arg-Trp-Lys)
crude yield: ˜60%
